Data reported in PubChem BioAssay AID328 (DTP/NCI, 2004).
The list does not hold the whole screen: it is rich in T/C values a quarter to a half above the control, in often repeated tests (any T/C) and in doses without a T/C. Other doses and runs of a compound stand elsewhere. T/C is the treated group as % of the vehicle group. Some doses have a count of surviving animals in place of a T/C: the source files T/C as zero there, which appears to mark a toxic dose or a test without result, not a measured value. Some survivor counts are full or nearly so, which does not show that the dose was tolerated: survival well below the control is almost never listed, so the zero probably covers shortened survival too. Survivors were counted at the toxicity check, usually on the fifth day, unless a day is given; later deaths do not show. Schedules are NCI's codes, read here as Q, the interval in days (D) or hours (H), X, the number of doses. Where survival is the endpoint, this PubChem deposit counts one and a half times the control or more as active, and values a quarter to a half above the control carry no call in these data; other NCI protocols may use other cut-offs. Some doses were run more than once; the values are given in rising order. Some T/C values carry the count of animals alive at the toxicity check (mostly the fifth day); where none is given, no animal had died by that day.

Test system: BDF1 mice, P388 leukemia ip, median survival T/C
Experiment: NCI In Vivo Anticancer Drug Screen. Data for tumor model P388 Leukemia (intraperitoneal) in B6D2F1 (BDF1) mice
Conditions: higher T/C = longer survival
How it was run: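 Read-out is survival of treated animals expressed relative to the vehicle group, as a T/C ratio.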

[1] = T/C endpoint: median survival time, dose: 400.0 mg/kg/injection, schedule: Q04DX003 (ip), vehicle: saline with Tween-80
[2] = T/C endpoint: median survival time, dose: 200.0 mg/kg/injection, schedule: Q04DX003 (ip), vehicle: saline with Tween-80
[3] = T/C endpoint: median survival time, dose: 50.0 mg/kg/injection, schedule: Q01DX009 (ip), vehicle: saline
[4] = T/C endpoint: median survival time, dose: 100.0 mg/kg/injection, schedule: Q01DX009 (ip), vehicle: saline
[5] = T/C endpoint: median survival time, dose: 100.0 mg/kg/injection, schedule: Q01DX009 (ip), vehicle: saline with Tween-80
[6] = T/C endpoint: median survival time, dose: 200.0 mg/kg/injection, schedule: Q01DX009 (ip), vehicle: saline with Tween-80
[7] = T/C endpoint: median survival time, dose: 50.0 mg/kg/injection, schedule: Q01DX009 (ip), vehicle: saline with Tween-80
[8] = T/C endpoint: median survival time, dose: 50.0 mg/kg/injection, schedule: Q01DX009 (ip), vehicle: Klucel (hydroxypropylcellulose) (HPC)
[9] = T/C endpoint: median survival time, dose: 12.5 mg/kg/injection, schedule: Q01DX009 (ip), vehicle: saline with Tween-80
[10] = T/C endpoint: median survival time, dose: 100.0 mg/kg/injection, schedule: Q04DX003 (ip), vehicle: saline with Tween-80
[11] = T/C endpoint: median survival time, dose: 50.0 mg/kg/injection, schedule: Q04DX003 (ip), vehicle: Klucel (hydroxypropylcellulose) (HPC)
[12] = T/C endpoint: median survival time, dose: 100.0 mg/kg/injection, schedule: Q04DX003 (ip), vehicle: Klucel (hydroxypropylcellulose) (HPC)
[13] = T/C endpoint: median survival time, dose: 400.0 mg/kg/injection, schedule: Q01DX009 (ip), vehicle: saline with Tween-80
[14] = T/C endpoint: median survival time, dose: 25.0 mg/kg/injection, schedule: Q01DX009 (ip), vehicle: saline

## CC(=O)CC(C)=O.CC(=O)CC(C)=O.c1cc[c]([Sn][c]2ccccc2)cc1
T/C endpoint: median survival time, dose: 25.0 mg/kg/injection, schedule: Q01DX001 (ip), vehicle: Klucel (hydroxypropylcellulose) (HPC)
  T/C: 132 % of control
T/C endpoint: median survival time, dose: 50.0 mg/kg/injection, schedule: Q01DX001 (ip), vehicle: Klucel (hydroxypropylcellulose) (HPC)
  T/C: 134 % of control

## CC(=O)C1C(=O)C(=O)OC1C (stereo unspecified)
[1]
  survivor count: 6 of 6

## CCCCCCCCOB(OCCCCCCCC)OCCCCCCCC
[2]
  survivor count: 3 of 6
[1]
  survivor count: 5 of 6

## CCCCCCCCO/N=C\c1c2c(O)c3c(O)c(C)c4c(c3c1O)C(=O)C(C)(O/C=C\C(OC)C(C)C(OC(C)=O)C(C)C(O)C(C)C(O)C(C)/C=C\C=C(\C)C(=O)N2)O4 (stereo unspecified)
T/C endpoint: median survival time, dose: 400.0 mg/kg/injection, schedule: Q01DX009 (ip), vehicle: Klucel (hydroxypropylcellulose) (HPC)
  survivor count: 4 of 6

## Cc1ncnc2c1CCC2
T/C endpoint: median survival time, dose: 300.0 mg/kg/injection, schedule: Q01DX009 (ip), vehicle: saline with Tween-80
  survivor count: 2 of 6
[1]
  survivor count: 1 of 6

## CCCCNC(C)(C)CS
[3]
  survivor count: 1 of 6
[4]
  survivor count: 3 of 6
T/C endpoint: median survival time, dose: 200.0 mg/kg/injection, schedule: Q01DX009 (ip), vehicle: saline
  survivor count: 0 of 6

## CCCCN(CCCC)CC(O)c1cc(-c2ccc(Cl)c(Cl)c2)cc2cc(Cl)ccc12 (stereo unspecified)
[5]
  survivor count: 6 of 6
[6]
  survivor count: 6 of 6

## [N-]=[N+]=NC(=O)c1ccccn1
[7]
  T/C: 137 % of control
[5]
  T/C: 135 % of control [4 of 6 alive]

## COc1cc(NC(=O)C(C)NC(=O)C(N)CCCCN)cc2ccccc12 (stereo unspecified)
T/C endpoint: median survival time, dose: 200.0 mg/kg/injection, schedule: Q01DX005 (ip), vehicle: suspension in saline
  survivor count: 0 of 5

## CCOC(=O)CN1C=C(C(=O)c2cc3ccccc3n2S(=O)(=O)c2ccccc2)CCC1
T/C endpoint: median survival time, dose: 1.0 mg/kg/injection, schedule: Q01DX009 (ip), vehicle: saline
  T/C: 133 % of control [5 of 6 alive]

## NNC(=O)OC12CC3CC(CC(C3)C1)C2
T/C endpoint: median survival time, dose: 255.0 mg/kg/injection, schedule: Q01DX001 (ip), vehicle: Klucel (hydroxypropylcellulose) (HPC)
  survivor count: 3 of 6
T/C endpoint: median survival time, dose: 385.0 mg/kg/injection, schedule: Q04DX003 (ip), vehicle: Klucel (hydroxypropylcellulose) (HPC)
  survivor count: 6 of 6

## [Cl][Pt+2]([Cl])([Cl])[Cl].[Na+].[S-]c1ncnc2nc[nH]c12.[S-]c1ncnc2nc[nH]c12
T/C endpoint: median survival time, dose: 132.0 mg/kg/injection, schedule: Q01DX009 (ip), vehicle: saline with Tween-80
  T/C: 140 % of control
[6]
  T/C: 125 and 127 % of control

## C=C1C(=O)O[C@@H]2CC(CO)=C([C@@H](C)CCCO)[C@@H](OC(=O)/C(C)=C\C)[C@H]12
T/C endpoint: median survival time, dose: 32.0 mg/kg/injection, schedule: Q01DX009 (ip), vehicle: saline + alcohol
  T/C: 128 % of control

## O=S(=O)(OCC#CCOS(=O)(=O)c1ccc(Cl)c(Cl)c1)c1ccc(Cl)c(Cl)c1
[8]
  T/C: 125 % of control

## CNC(C)(C)C(SSSC(c1ccc(Cl)cc1)C(C)(C)NC)c1ccc(Cl)cc1 (stereo unspecified)
T/C endpoint: mean survival time, dose: 50.0 mg/kg/injection, schedule: Q01DX009 (ip), vehicle: saline with Tween-80
  survivor count: 5 of 6
[9]
  survivor count: 3 of 6
[5]
  survivor count: 0 of 6
[10]
  survivor count: 6 of 6

## COc1cc(C=Nc2ccc(-c3nc(C)sc3C)cc2)ccc1N(CCCl)CCCl
[11]
  survivor count: 5 of 6
[12]
  survivor count: 0 of 6

## O=C(c1ccccc1)C(O)(CC(c1ccccc1)[P+](c1ccccc1)(c1ccccc1)c1ccccc1)c1ccccc1 (stereo unspecified)
T/C endpoint: median survival time, dose: 1.75 mg/kg/injection, schedule: Q01DX009 (ip), vehicle: saline
  T/C: 125 % of control
T/C endpoint: median survival time, dose: 3.13 mg/kg/injection, schedule: Q01DX009 (ip), vehicle: saline with Tween-80
  T/C: 145 % of control
T/C endpoint: median survival time, dose: 6.25 mg/kg/injection, schedule: Q01DX009 (ip), vehicle: saline with Tween-80
  T/C: 127 % of control
T/C endpoint: median survival time, dose: 12.5 mg/kg/injection, schedule: Q01DX009 (ip), vehicle: Klucel (hydroxypropylcellulose) (HPC)
  T/C: 127 % of control
[9]
  survivor count: 6 of 6
T/C endpoint: median survival time, dose: 25.0 mg/kg/injection, schedule: Q01DX009 (ip), vehicle: Klucel (hydroxypropylcellulose) (HPC)
  survivor count: 2 of 6
T/C endpoint: median survival time, dose: 25.0 mg/kg/injection, schedule: Q04DX003 (ip), vehicle: Klucel (hydroxypropylcellulose) (HPC)
  survivor count: 3 of 6
T/C endpoint: median survival time, dose: 25.0 mg/kg/injection, schedule: Q04DX003 (ip), vehicle: saline with Tween-80
  survivor count: 5 of 6
[11]
  survivor count: 4 of 6
[12]
  survivor count: 0 of 6
[10]
  survivor count: 0 of 6
[2]
  survivor count: 0 of 6
[1]
  survivor count: 0 of 6

## O=C1CN(N2C(=O)CSC2C23CC4CC(CC(C4)C2)C3)C(=O)CN1c1ccccc1 (stereo unspecified)
[6]
  survivor count: 6 of 6

## COc1cc(OC)c(Br)cc1C
[5]
  survivor count: 6 of 6
[6]
  survivor count: 6 of 6
[13]
  survivor count: 5 of 6

## CNC(C)(C)C(SS)c1ccc(Cl)cc1 (stereo unspecified)
[5]
  survivor count: 0 of 6
[10]
  survivor count: 5 of 6

## Cc1cc(NCCCCNCCCNc2cc(C)nc3cc(N)ccc23)c2ccc(N)cc2n1
T/C endpoint: median survival time, dose: 6.25 mg/kg/injection, schedule: Q01DX009 (ip), vehicle: other
  T/C: 128 % of control
T/C endpoint: median survival time, dose: 25.0 mg/kg/injection, schedule: Q01DX009 (ip), vehicle: other
  survivor count: 3 of 6
T/C endpoint: median survival time, dose: 50.0 mg/kg/injection, schedule: Q01DX009 (ip), vehicle: other
  survivor count: 0 of 6
T/C endpoint: median survival time, dose: 100.0 mg/kg/injection, schedule: Q01DX009 (ip), vehicle: other
  survivor count: 0 of 6

## C=CC(c1ccccc1)C(O)(Cc1ccccc1)Cc1ccccc1 (stereo unspecified)
T/C endpoint: median survival time, dose: 25.0 mg/kg/injection, schedule: Q01DX009 (ip), vehicle: DMSO
  survivor count: 6 of 6

## CCOC(=O)c1cnn2c(SC)ncnc12
[5]
  survivor count: 6 of 6
[6]
  survivor count: 4 of 6
[13]
  survivor count: 0 of 6

## NC(=O)NCCCC(N)C(=O)O (stereo unspecified)
T/C endpoint: median survival time, dose: 400.0 mg/kg/injection, schedule: Q01DX010 (ip), vehicle: saline
  survivor count: 4 of 6

## CCCCCCCCCCCCCC[N+](C)(C)CCCCCCCCCCCCCC
T/C endpoint: median survival time, dose: 12.5 mg/kg/injection, schedule: Q01DX009 (ip), vehicle: saline
  T/C: 125 % of control
[14]
  T/C: 115, 123, 125, 129 % of control
T/C endpoint: median survival time, dose: 37.5 mg/kg/injection, schedule: Q01DX009 (ip), vehicle: saline
  survivor count: 6 of 6
[3]
  survivor count: 4 of 6
[4]
  survivor count: 1 of 6
T/C endpoint: median survival time, dose: 100.0 mg/kg/injection, schedule: Q04DX003 (ip), vehicle: saline
  survivor count: 4 of 6

## CN(C)CCCNC1=C(Cl)C(=O)c2ccccc2C1=O
[8]
  survivor count: 3 of 6

## CCCC(=O)OCc1ccc(Cl)cc1Cl
[2]
  T/C: 127 % of control

## O=NN(CCCl)C(=O)Nc1ccc(CCO)cc1
T/C endpoint: median survival time, dose: 0.31 mg/kg/injection, schedule: Q01DX009 (ip), vehicle: Klucel (hydroxypropylcellulose) (HPC)
  T/C: 127 % of control
T/C endpoint: median survival time, dose: 0.47 mg/kg/injection, schedule: Q01DX009 (ip), vehicle: Klucel (hydroxypropylcellulose) (HPC)
  T/C: 140 % of control
T/C endpoint: median survival time, dose: 0.72 mg/kg/injection, schedule: Q01DX009 (ip), vehicle: Klucel (hydroxypropylcellulose) (HPC)
  T/C: 131 % of control
T/C endpoint: median survival time, dose: 1.0 mg/kg/injection, schedule: Q04DX003 (ip), vehicle: saline
  T/C: 130 % of control
[14]
  survivor count: 6 of 6
T/C endpoint: median survival time, dose: 25.0 mg/kg/injection, schedule: Q04DX003 (ip), vehicle: saline + alcohol
  survivor count: 6 of 6
T/C endpoint: median survival time, dose: 50.0 mg/kg/injection, schedule: Q04DX003 (ip), vehicle: saline sonified
  survivor count: 4 of 6
T/C endpoint: median survival time, dose: 100.0 mg/kg/injection, schedule: Q04DX003 (ip), vehicle: saline sonified
  survivor count: 4 of 6

## CSC1CCCC(=O)C1 (stereo unspecified)
[8]
  survivor count: 5 of 6

## C=CCCN1CCCC1
[7]
  survivor count: 1 of 6

## [O]=[Cr](=[O])([OH])[O][Cr](=[O])(=[O])[OH]
[14]
  survivor count: 3 of 6
